# The other results are listed elsewhere or left out. Shown are side measurements of this screen, not its main read-out; they come without a call. Compounds called inactive in the main read-out are mostly missing here. The note in brackets gives the kind of curve behind each potency; many fits are weak.
# Assay: IkB Signaling
# Details: ABC-DLBCL IkBa-CBG/CBR dual luciferase ratio (green luciferase fused to IkBa over red control in OCI-Ly3 lymphoma cells), 4 h
# Method in brief: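 Luminescence ratio of IκBα-fused green versus native red beetle luciferase in OCI-Ly3 cells, 4 h post-doxycycline with compound; red signal alone, scaled from basal (0%) to zero light (-100%), flagged nonspecific or cytotoxic effects.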
# [1] = measured here: control luc red channel unless noted
structure (smiles),measurement,setting,value
Cc1ccc(Cn2c(CCNC(=O)c3cccc(C)c3)nc3ccccc32)cc1,AC50,[1],"25.1 µM [falling, single point]"
COc1ccc(Cl)cc1NC(=O)CSC1=Nc2ccccc2C2=NC(CCC(=O)NCc3ccco3)C(=O)N12 (centres undefined),AC50,[1],"39.8 µM [falling, single point]"
Cc1cccc(NC(=O)CN2C(=O)C3(SCC(=O)N3c3ccccc3)c3ccccc32)c1 (centres undefined),AC50,[1],"31.6 µM [falling, single point]"
Cc1ccc(S(=O)(=O)N2CCN(Cc3ccccc3Cl)CC2)cc1,AC50,[1],"25.1 µM [falling, partial curve, poor fit]"
CC(C)Cn1cc(NC(=O)NCc2cccc(Cl)c2)c2ccccc2c1=O,AC50,[1],"6.31 µM [falling, partial curve]"
COc1ccc(NC(=O)c2cccc(N3CCCS3(=O)=O)c2)c(OC)c1,AC50,[1],"12.6 µM [falling, single point]"
O=C(NCCc1ccccc1)c1ccc2c(c1)N(Cc1ccc(F)cc1)C(=O)CS2,AC50,[1],"31.6 µM [falling, single point]"
O=C(NCCC1=CCCCC1)c1ccc2c(c1)sc1nc(-c3ccc(F)cc3)cn12,AC50,[1],"31.6 µM [falling, single point]"
CCN(CC)c1ccc(NC(=O)CN2CCN(CC(=O)Nc3ccc(Cl)cc3)CC2)cc1,AC50,[1],"15.8 µM [falling, partial curve]"
CC1(C)O[C@H]2C[C@@H]3[C@H]4CCC5=CC(=O)CC[C@@]5(C)[C@]4(F)[C@@H](O)C[C@@]3(C)[C@@]2(C(=O)CCl)O1,AC50,[1],"6.31 µM [rising, full curve] [measured here: IkB-luc green channel]"
Cc1ccc(CSc2cn(CC(=O)N3CCCCCC3)c3ccccc23)cc1,AC50,[1],"10 µM [falling, partial curve]"
CCCN(Cc1cc2cccc(C)c2[nH]c1=O)C(=O)c1cccc(Cl)c1,AC50,[1],"15.8 µM [falling, partial curve]"
COc1ccccc1NC(=O)CC(C)n1nc(C)cc1C (centres undefined),AC50,[1],"2 µM [falling, partial curve]"
CCOC(=O)c1ccc(NC(=O)CSc2nc3c(c(=O)[nH]2)CN(Cc2ccccc2)CC3)cc1,AC50,[1],"3.16 µM [falling, full curve]"
COc1ccc(-n2nc3c(N4CCC(C(=O)NCc5ccccc5C)CC4)nnc(C)c3c2C)cc1,AC50,[1],"12.6 µM [falling, single point]"
CCOC(=O)N1CCC(NC(=O)c2c(C)nn(-c3cccc(C)c3)c2-n2cccc2)CC1,AC50,[1],"25.1 µM [falling, partial curve, poor fit]"
Cc1nc(SCC(=O)N(C)Cc2ccco2)c2c(C)c(C)sc2n1,AC50,[1],"25.1 µM [falling, single point]"
CN(CC(=O)Nc1ccc(C#N)cc1)Cc1ccc(Cl)cc1,AC50,[1],"25.1 µM [falling, single point]"
Cc1ccc(N(CC(=O)N2CCN(c3ccc(F)cc3)CC2)S(=O)(=O)c2c(C)noc2C)cc1,AC50,[1],"10 µM [falling, partial curve]"
CC(C)(C)C(=O)NCCc1nc2ccccc2n1CCCCOc1ccccc1,AC50,[1],"25.1 µM [falling, partial curve]"
COC(=O)c1ccccc1NS(=O)(=O)c1cc2c(cc1C)N(C)CCO2,AC50,[1],"15.8 µM [falling, single point]"
COc1ccccc1N1CCN(C(=O)CN2C(=O)COc3ccc(S(=O)(=O)N4CCOCC4)cc32)CC1,AC50,[1],"20 µM [falling, partial curve, poor fit]"
CCN(CC)C(=O)c1c(-c2ccccc2)c(-c2ccccc2)nn(CC)c1=O,AC50,[1],"12.6 µM [falling, partial curve]"
COc1ccc(CCC(=O)NC2CC(=O)N(c3ccc(F)cc3)C2)cc1 (centres undefined),AC50,measured here: IkB-luc green channel,"3.98 µM [rising, full curve, poor fit]"
same,AC50,measured here: control luc red channel,"6.31 µM [rising, single point]"
COc1ccc(-c2nc3sc(CCNC(=O)c4ccc(Br)o4)c(C)n3n2)cc1,AC50,[1],"25.1 µM [falling, partial curve]"
CCN(Cc1nc(-c2ccc(OC)c(OC)c2)no1)S(=O)(=O)c1ccc(OC)cc1,AC50,[1],"25.1 µM [falling, single point]"
COc1ccc(C(c2sc3ncnn3c2O)N2CCN(c3ccccc3F)CC2)cc1OC (centres undefined),AC50,[1],"10 µM [falling, partial curve]"
O=C(CSc1nc(=O)n(Cc2ccccn2)c2c1CCC2)Nc1ccccc1,AC50,[1],"25.1 µM [falling, partial curve]"
CC(C)(C)OC(=O)N1CCC(c2c(C(=O)NC3CCCCC3)cnn2-c2ccc(F)cc2F)CC1,AC50,[1],"31.6 µM [falling, partial curve]"
Cc1ccc(S(=O)(=O)C(CNS(=O)(=O)c2cc(F)ccc2F)c2cccs2)cc1 (centres undefined),AC50,[1],"0.316 µM [falling, full curve, poor fit]"
O=C1CN(C(=O)c2ccc(S(=O)(=O)N3CCCC3)cc2)C(c2ccccc2)c2cc(F)ccc2N1 (centres undefined),AC50,[1],"0.794 µM [falling, full curve]"
Cc1ccccc1-c1noc(-c2ccccc2OCC(=O)Nc2cccc([N+](=O)[O-])c2)n1,AC50,[1],"39.8 µM [falling, single point]"
Cc1nc(-c2ccc(F)cc2)sc1CCNC(=O)Cc1ccc(F)cc1,AC50,[1],"10 µM [falling, partial curve]"
CCn1cc2nc(SCc3ccccc3Cl)n(Cc3ccc(OC)cc3)c(=O)c2n1,AC50,[1],"10 µM [falling, partial curve]"
COc1ccc(-c2c(C)c3ccc(O)c(CN4CCC(C)CC4)c3oc2=O)cc1OC,AC50,[1],"25.1 µM [falling, partial curve, poor fit]"
COc1ccc(C(Nc2ccccn2)c2ccc3ccc(C)nc3c2O)cc1C (centres undefined),AC50,[1],"6.31 µM [falling, partial curve]"
O=C(NCc1ccco1)C1CCN(C(=O)c2cc3sccc3n2Cc2ccc(Cl)cc2)CC1,AC50,[1],"7.94 µM [falling, full curve]"
CN1CCN(c2ncnc3c2cnn3-c2cccc(Cl)c2)CC1,AC50,[1],"10 µM [falling, partial curve]"

# Rewritten tab-delimited: part of the list above
structure (smiles)	measurement	setting	value
Cc1cccc(NC(=O)CN2C(=O)C3(SCC(=O)N3c3ccccc3)c3ccccc32)c1 (centres undefined)	AC50	[1]	31.6 µM [falling, single point]
Cc1ccc(S(=O)(=O)N2CCN(Cc3ccccc3Cl)CC2)cc1	AC50	[1]	25.1 µM [falling, partial curve, poor fit]
CC(C)Cn1cc(NC(=O)NCc2cccc(Cl)c2)c2ccccc2c1=O	AC50	[1]	6.31 µM [falling, partial curve]

# From PubChem BioAssay AID445 (National Center for Advancing Translational Sciences (NCATS), 2006)
